Experimental data taken from paper PMC5541705.
No constants are given. Whether binding was seen depends on the method and setting. In cells and extracts the contact can be indirect. Some results given as binding are weak or reduced against the parent protein; the word gives no strength.

Molecular target: T1, Transforming growth factor-β2 (TGFβ2) (human (endogenous in MDA-MB-231)) (UniProt P61812)
T1 sequence: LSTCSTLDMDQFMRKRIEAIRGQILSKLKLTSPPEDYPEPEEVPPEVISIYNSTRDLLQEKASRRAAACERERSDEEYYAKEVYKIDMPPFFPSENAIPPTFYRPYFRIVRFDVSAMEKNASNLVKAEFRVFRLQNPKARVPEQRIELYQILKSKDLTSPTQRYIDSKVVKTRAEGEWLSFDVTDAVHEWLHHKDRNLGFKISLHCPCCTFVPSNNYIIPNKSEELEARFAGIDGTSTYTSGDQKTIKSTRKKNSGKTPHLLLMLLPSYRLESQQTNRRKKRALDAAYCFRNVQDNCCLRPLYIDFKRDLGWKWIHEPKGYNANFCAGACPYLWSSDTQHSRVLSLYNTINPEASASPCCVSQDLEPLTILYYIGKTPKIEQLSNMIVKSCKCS
Test: co-IP; 1 mg MDA-MB-231 lysate (RIPA buffer with protease inhibitors) incubated with protein G-agarose and anti-SRGN or anti-TGFβ2 antibody for 4 h at 4 °C; beads washed 3 times with 150 mM NaCl, 25 mM Tris-HCl pH 7.5, 0.1% Nonidet P-40; western blot with anti-SRGN or anti-TGFβ2 antibody

binding: binds
B1: Serglycin (SRGN) (protein, UniProt P10124 28-158)
chain: YPTRRARYQWVRCNPDSNSANCLEEKGPMFELLPGESNKIPRLRTDLFPKTRIQDLNRIFPLSEDYSGSGFGSGSGSGSGSGSGFLTEMEQDYQLVDESDAFHDNLRSLDRNLPSDSQDLGQHGLEEDFML
